## Primary screen of a compound library

Amino acid sequences for entries named in this document (tags omitted). Residues count along the entry.
UniProt P9WNZ1, whole entry: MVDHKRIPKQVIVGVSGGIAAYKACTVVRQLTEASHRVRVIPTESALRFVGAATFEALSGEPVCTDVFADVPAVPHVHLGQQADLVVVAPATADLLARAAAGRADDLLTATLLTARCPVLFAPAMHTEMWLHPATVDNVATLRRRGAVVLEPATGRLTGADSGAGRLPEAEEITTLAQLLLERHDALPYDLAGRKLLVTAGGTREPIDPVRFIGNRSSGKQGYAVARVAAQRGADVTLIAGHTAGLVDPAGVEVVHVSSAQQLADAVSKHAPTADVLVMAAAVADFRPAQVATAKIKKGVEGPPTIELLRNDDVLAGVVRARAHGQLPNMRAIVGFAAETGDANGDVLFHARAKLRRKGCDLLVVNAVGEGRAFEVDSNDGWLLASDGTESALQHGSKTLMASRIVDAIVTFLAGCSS
UniProt I6X8D2, whole entry: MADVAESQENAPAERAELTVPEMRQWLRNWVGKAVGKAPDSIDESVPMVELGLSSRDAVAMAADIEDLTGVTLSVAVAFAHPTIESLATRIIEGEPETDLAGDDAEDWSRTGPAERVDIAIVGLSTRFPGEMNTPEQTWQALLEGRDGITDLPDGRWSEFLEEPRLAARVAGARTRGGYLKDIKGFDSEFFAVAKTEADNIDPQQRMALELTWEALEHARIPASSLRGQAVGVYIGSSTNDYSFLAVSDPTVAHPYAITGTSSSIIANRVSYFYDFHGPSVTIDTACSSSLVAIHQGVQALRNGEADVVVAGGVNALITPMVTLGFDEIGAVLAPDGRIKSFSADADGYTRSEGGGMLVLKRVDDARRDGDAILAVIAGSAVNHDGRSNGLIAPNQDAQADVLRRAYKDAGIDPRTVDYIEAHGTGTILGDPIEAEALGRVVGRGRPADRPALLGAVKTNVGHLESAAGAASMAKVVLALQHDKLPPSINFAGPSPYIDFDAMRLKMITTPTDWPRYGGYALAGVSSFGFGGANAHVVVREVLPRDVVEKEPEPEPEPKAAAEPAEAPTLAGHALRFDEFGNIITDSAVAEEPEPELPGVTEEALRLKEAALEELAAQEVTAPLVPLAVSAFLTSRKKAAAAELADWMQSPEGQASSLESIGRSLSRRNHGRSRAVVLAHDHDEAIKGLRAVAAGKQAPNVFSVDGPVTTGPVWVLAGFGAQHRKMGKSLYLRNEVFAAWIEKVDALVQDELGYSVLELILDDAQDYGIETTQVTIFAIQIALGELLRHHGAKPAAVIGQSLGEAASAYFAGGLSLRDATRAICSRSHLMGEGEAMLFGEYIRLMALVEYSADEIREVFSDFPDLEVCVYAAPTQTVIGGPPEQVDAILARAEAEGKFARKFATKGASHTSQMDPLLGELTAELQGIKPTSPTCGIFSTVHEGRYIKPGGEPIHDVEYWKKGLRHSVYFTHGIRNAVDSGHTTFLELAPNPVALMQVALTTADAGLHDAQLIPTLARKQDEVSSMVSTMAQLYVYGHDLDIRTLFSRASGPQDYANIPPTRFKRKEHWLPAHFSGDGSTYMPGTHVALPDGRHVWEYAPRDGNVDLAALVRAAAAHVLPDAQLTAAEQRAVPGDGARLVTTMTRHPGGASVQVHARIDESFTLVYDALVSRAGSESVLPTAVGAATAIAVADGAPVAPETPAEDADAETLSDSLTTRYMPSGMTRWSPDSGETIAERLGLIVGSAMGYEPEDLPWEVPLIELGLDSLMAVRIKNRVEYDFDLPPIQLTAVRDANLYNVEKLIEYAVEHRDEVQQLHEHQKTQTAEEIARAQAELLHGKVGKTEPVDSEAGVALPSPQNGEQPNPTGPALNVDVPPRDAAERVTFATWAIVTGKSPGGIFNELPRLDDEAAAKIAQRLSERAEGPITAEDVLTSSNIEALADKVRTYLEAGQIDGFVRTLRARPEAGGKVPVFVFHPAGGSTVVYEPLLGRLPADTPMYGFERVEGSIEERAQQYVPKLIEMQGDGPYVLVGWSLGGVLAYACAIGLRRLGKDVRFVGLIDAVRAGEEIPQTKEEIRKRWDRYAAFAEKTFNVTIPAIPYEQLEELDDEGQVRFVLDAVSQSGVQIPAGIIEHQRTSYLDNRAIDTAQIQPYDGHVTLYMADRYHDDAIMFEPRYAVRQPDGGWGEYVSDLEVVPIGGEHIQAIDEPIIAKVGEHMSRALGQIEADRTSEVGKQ
UniProt P9WPC5, whole entry: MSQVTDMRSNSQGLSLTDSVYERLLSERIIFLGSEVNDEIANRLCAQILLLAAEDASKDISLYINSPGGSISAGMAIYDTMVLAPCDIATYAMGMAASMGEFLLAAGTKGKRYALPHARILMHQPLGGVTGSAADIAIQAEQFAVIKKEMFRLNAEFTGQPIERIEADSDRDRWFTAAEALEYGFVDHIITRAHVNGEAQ
UniProt P9WPC3, whole entry partner: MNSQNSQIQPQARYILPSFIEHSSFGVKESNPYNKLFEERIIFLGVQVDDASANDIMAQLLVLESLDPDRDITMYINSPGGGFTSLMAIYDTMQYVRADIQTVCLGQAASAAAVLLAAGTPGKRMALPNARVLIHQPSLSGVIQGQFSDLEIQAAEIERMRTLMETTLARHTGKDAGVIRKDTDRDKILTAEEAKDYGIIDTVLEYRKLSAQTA
UniProt A4I591, 1-473: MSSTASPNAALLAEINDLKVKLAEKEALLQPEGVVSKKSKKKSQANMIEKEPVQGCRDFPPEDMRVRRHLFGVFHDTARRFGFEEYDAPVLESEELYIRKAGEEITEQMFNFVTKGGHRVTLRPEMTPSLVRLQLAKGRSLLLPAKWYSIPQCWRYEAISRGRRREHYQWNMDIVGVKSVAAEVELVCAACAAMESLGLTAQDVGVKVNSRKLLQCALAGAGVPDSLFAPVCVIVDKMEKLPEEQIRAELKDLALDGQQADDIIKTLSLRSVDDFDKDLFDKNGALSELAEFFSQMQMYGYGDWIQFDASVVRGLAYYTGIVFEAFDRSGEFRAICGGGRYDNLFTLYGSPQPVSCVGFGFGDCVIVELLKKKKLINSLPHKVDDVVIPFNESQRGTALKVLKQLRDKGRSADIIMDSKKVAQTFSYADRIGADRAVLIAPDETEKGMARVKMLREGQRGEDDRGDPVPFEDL
UniProt P9WFT3, whole entry: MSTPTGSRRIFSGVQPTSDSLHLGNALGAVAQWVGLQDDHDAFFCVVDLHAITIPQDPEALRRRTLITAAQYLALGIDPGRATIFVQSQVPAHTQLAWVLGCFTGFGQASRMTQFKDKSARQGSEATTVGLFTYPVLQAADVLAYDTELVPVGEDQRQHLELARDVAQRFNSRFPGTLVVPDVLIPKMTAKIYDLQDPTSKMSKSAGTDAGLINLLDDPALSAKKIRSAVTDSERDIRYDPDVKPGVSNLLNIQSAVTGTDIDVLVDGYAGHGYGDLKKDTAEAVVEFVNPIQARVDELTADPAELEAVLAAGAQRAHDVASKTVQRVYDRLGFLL

A: 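Enzyme assay of CoaBC with a phosphate dye (Biomol Green) read at 650 nm. Target: Coenzyme A biosynthesis protein CoaBC, Mycobacterium tuberculosis (UniProt P9WNZ1). Tested at 30 µM. Direction is inferred from only a few compounds that gave an IC50; most scored high, so higher reads as stronger inhibition. Most strong results did not repeat in a second test. Size under these conditions: about 67,000 compounds, about 40 of them at 50% or above in at least one test.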
B: 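Enzyme assay of the thioesterase domain of polyketide synthase 13; the read-out is not stated. Target: Polyketide synthase Pks13, Mycobacterium tuberculosis (UniProt I6X8D2). Compounds at 30 µM. The record gives no direction; the compounds picked for IC50 retests had high values, so higher reads as stronger inhibition. Of about 67,000 compounds tested this way, about 300 (0.46%) reached 50% or more in at least one test.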
C: 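Protease assay of ClpP1P2, read by the AMC dye that it sets free. Target: ClpP1P2, Mycobacterium tuberculosis (UniProt P9WPC5 and UniProt P9WPC3). Concentration: 50 µM. Direction is inferred from only a few compounds that gave an IC50; most scored high, so higher reads as stronger inhibition. Most other retested compounds had strongly negative values. Of about 69,000 compounds tested this way, about 10 (0.015%) reached 50% or more in at least one test.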
D: 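Enzyme assay of histidyl-tRNA synthetase; the read-out is not stated. Target: Histidine-tRNA ligase, Leishmania infantum (UniProt A4I591). Compounds at 30 µM. Direction is inferred from retests: higher values go with stronger inhibition. The assay is labelled LdHisRS but filed under L. infantum. Size under these conditions: about 69,000 compounds, about 410 of them at 50% or above in at least one test.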
E: 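Enzyme assay of tryptophanyl-tRNA synthetase; the read-out is not stated. Target: Tryptophan-tRNA ligase, Mycobacterium tuberculosis (UniProt P9WFT3). Tested at 10 µM. Direction is not recorded; retested compounds ran higher, which suggests that high means inhibition. Of about 65,000 compounds tested this way, about 64 (0.098%) reached 50% or more in at least one test.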

The filed quantity is “Percent Effect” (%).
How 0% and 100% were set is not recorded. Most values in the screen are low, and negative values occur.
The compounds are a random part of those screened.
Two or more numbers in one place are separate tests of the same structure; such repeats can differ widely.

With COCc1noc(CC2CN(c3ncnc4sc(C)c(C)c34)CCO2)n1 (configuration not stated) the screen gave A: 1.788%; B: -22.22%; C: 3.487%; D: 18.18%; E: -4.45%.
With Cc1ncsc1CNc1cccc(OCCN2CCCC2)c1 the screen gave A: 0.4831%; B: -26.17%; C: 16.48%; D: 25.25%; E: -5.818%.
With O=C(Nc1cccnc1)[C@H]1C[C@@H]2CN(S(=O)(=O)C3CC3)C[C@H]1O2 the screen gave A: 2.75%; B: -20.04%; C: -7.294%; D: 10%; E: -2.815%.
With CCOc1ccccc1C(=O)N1CCCC(c2nccn2CCOC)C1 (configuration not stated) the screen gave A: -7.015%; B: 4.726%; C: -4.147%; D: -6.849%; E: -1.847%.
With O=C1NC(c2ccccc2)=N[C@@]12CC[C@@H]1CN(Cc3nccs3)C[C@@H]12 the screen gave A: 0.6452%; B: 23.95%; C: -17.34%; D: 13.89%; E: -4.74%.
With O=C(NCCCn1ccccc1=O)c1cnc(-c2ccsc2)s1 the screen gave A: -4.132%; B: -5.687%; C: -1.279%; D: 22.32%; E: 4.417%.
With O=C(N1CCCC1)N1CCC2(CC1)C(=O)N(CC1CC1)c1ccccc12 the screen gave A: 7.851%; B: -25.75%; C: 0.3929%; D: 17.31%; E: -4.36%.
With Cn1ccc(C2CCCCN2C(=O)c2cccc(-n3cccn3)c2)n1 (configuration not stated) the screen gave A: 19.01%; B: -10.35%; C: 5.374%; D: 9.333%; E: 11.76%.
With O=C(c1ccc2c(c1)[nH]c(=O)n2C1CCCC1)N1CCC1 the screen gave A: -1.2%; B: -29.86%; C: -2.537%; D: 17.95%; E: -7.424%.
With Cn1cc(-c2ncnc3c2CCN(CC2CCOC2)CC3)cn1 (configuration not stated) the screen gave A: 2.351%; B: -8.053%; C: -3.448%; D: -23.76%.
With CC(C)n1cnnc1C1CCCN(S(=O)(=O)c2c[nH]cn2)C1 (configuration not stated) the screen gave A: 0.3841%; B: -16.21%; C: -6.035%; D: -4.938%; E: -0.3856%.
With CCn1cc(CN2CCCC(COc3ccc(F)cc3)C2)cn1 (configuration not stated) the screen gave A: 1.585%; B: -1.22%; C: 1.704%; D: 24.18%; E: 1.06%.
With Cc1cnn(C2CCCN(C(=O)Cc3n[nH]c4ccccc34)C2)c1 (configuration not stated) the screen gave A: 0.4545%; B: -3.905%; C: -31.3%; D: 3.571%; E: 14.15%.
With Cc1nc(C)n(CC2CCCN(CC(=O)Nc3c(C)n[nH]c3C)C2)n1 (configuration not stated) the screen gave A: -1.33%; B: -4.635%; C: 13.97%; D: 18.4%; E: -3.302%.
With Cc1nnc2ccc(N3CCC(C(=O)Nc4nccs4)CC3)nn12 the screen gave A: 3.535%; B: -29.48%; C: -8.857%; D: 15.79%; E: 3.852%.
With CNC(=O)c1cc2c(nc1NCC(C)C)CCN(c1ccncn1)CC2 the screen gave A: 3.008%; B: 94.42%; C: -285.4%; D: 12.82%; E: 1.106%.
With CN(Cc1ccco1)Cc1ccccc1CNC(=O)c1c[nH]nn1 the screen gave A: 3.205%; B: -54.94%; C: -27.98%; D: -1.37%; E: -3.792%.
With CC(CS(C)(=O)=O)N(C(=O)CCc1cccc(F)c1)C1CC1 (configuration not stated) the screen gave A: 20.39% and 9.524%; B: 2.514%; C: -15.35%; D: 2.41%; E: 1.569%.
With Cc1ccc(C)c(-n2cc(CN3CCOCC3)c(-c3ccccc3)n2)c1 the screen gave A: 4.545%; B: -8.751%; C: -9.711%; D: -4%; E: -7.162%.
With Cc1oc(-c2nc(C#N)c(N(C)C)o2)cc1S(=O)(=O)N1CCCCCC1 the screen gave A: 2.02%; B: -5.483%; C: -14.69%; D: 10.53%; E: 1.19%.
With Cn1cc(CN2CCC3(CC(=O)N(c4ccc5c(c4)OCO5)C3)C2)cn1 (configuration not stated) the screen gave A: 0.6435%; B: 0.711%; C: -3.698%; D: 21.57%; E: -0.09588%.
With CS(=O)(=O)c1cc(Cl)cnc1C1CCN(C(=O)C2CCOCC2)CC1 the screen gave A: 1.914%; B: 5.936%; C: -19.62%; D: 4.317%; E: 15.89%.
With Cc1cc(CN2CCCC2)cc(Oc2ccc3c(c2)CC(CN)O3)c1 (configuration not stated) the screen gave A: 3.851%; B: -10.62%; C: -31.56%; D: 12.5%; E: -3.039%.
With Cc1cc(-c2cnc(N(C)C)nc2C2CCCCN2C(=O)C2CC2)on1 (configuration not stated) the screen gave A: 1.675%; B: -5.092%; C: -9.448%; D: 14.39%; E: -3.255%.
With CN(Cc1cc2n(n1)CCCNC2)Cc1n[nH]c2c1CCC2 the screen gave A: 5.383%; B: -12.91%; C: -3.87%; D: 9.836%; E: 4.515%.
With Cn1cc(-c2ncc3c(c2C(=O)O)CCN(CC2CC2)C3)cn1 the screen gave A: 2.351%; B: -9.102%; C: 19.47%; D: -87.13%.
With Cc1cc(C)n(-c2ccccc2NC(=O)NCCS(=O)(=O)CC(C)C)n1 the screen gave A: -0.6494%; B: 1.699%; C: -10.27%; D: 8.197%; E: -0.8051%.
With Cc1cc(N2CCCC(O)(CN(C)C)CC2)nc(-c2ccccc2)n1 (configuration not stated) the screen gave A: -4.545%; B: -19.6%; C: -3.084%; D: 16.44%; E: -1.487%.

Data taken from ChEMBL document CHEMBL3988442, “University of Dundee, Small-Polar-MMV Screening Library” (2021).